We go through 10 molecules from US20260242416A1, “ANTIMICROBIAL PEPTIDES” (priority 2023, published 2026).

The series has as its system microbial cells over eukaryotic cells. Kind of series: Selectivity index (ratio of the toxicity to the MIC).
Where [1] appears, read: range of selectivity indices, S. Enteritidis (second of three slash-separated values), N/O = no observed antimicrobial activity.
Where [2] appears, read: range of selectivity indices, S. aureus (third of three slash-separated values), N/O = no observed antimicrobial activity.
The mark [3] stands for this setting: range of selectivity indices, E. coli (first of three slash-separated values), N/O = no observed antimicrobial activity.

Like-named read-outs stand apart in the source and are kept apart here. Where a SMILES comes first, the peptide text is derived from it.

For the molecule `CC[C@H](C)[C@H](NC(=O)CN)C(=O)N[C@@H](Cc1ccc(O)cc1)C(=O)N[C@H](C(=O)NCC(=O)N[C@@H](CCCNC(=N)N)C(=O)N[C@@H](CC(C)C)C(=O)N[C@@H](CC(C)C)C(=O)N1CCC[C@H]1C(=O)N[C@H](C(=O)N[C@@H](Cc1ccc(O)cc1)C(=O)N[C@H](C(=O)N1CCC[C@H]1C(=O)N[C@@H](CCC(N)=O)C(=O)N1CCC[C@H]1C(=O)N[C@@H](CCCNC(=N)N)C(=O)N1CCC[C@H]1C(=O)N1CCC[C@H]1C(=O)N[C@@H](Cc1c[nH]cn1)C(=O)N1CCC[C@H]1C(=O)N[C@@H](CCCNC(=N)N)C(=O)N[C@@H](CC(C)C)C(=O)N[C@@H](CCCNC(=N)N)C(=O)N[C@@H](CCCNC(=N)N)C(=O)O)[C@@H](C)CC)C(C)C)[C@@H](C)O` [ApCe1] (H-GIYTGRLLPVYIPQPRPPHPRLRR-OH; N-terminus and C-terminus assumed), the “Selectivity Index S. Enteritidis” value under setting [1] is listed as “N/O”.

As for `CC[C@H](C)[C@H](NC(=O)[C@@H](N)Cc1ccccc1)C(=O)N[C@@H](CCCCN)C(=O)N[C@H](C(=O)N[C@@H](CCC(N)=O)C(=O)N[C@H](C(=O)N[C@@H](CC(C)C)C(=O)N[C@@H](CCCCN)C(=O)N[C@@H](Cc1c[nH]cn1)C(=O)N[C@@H](CC(C)C)C(=O)N[C@H](C(=O)N[C@@H](C)C(=O)NCC(=O)N[C@H](C(=O)N[C@@H](CCCNC(=N)N)C(=O)N[C@H](C(=O)N[C@@H](C)C(=O)N[C@@H](CCCNC(=N)N)C(=O)NCC(=O)N[C@@H](CC(C)C)C(=O)N[C@@H](CC(=O)O)C(=O)N[C@@H](Cc1c[nH]c2ccccc12)C(=O)N[C@@H](CCCCN)C(=O)N[C@@H](Cc1c[nH]c2ccccc12)C(=O)N[C@@H](CCCNC(=N)N)C(=O)O)C(C)C)C(C)C)C(C)C)C(C)C)[C@@H](C)O` [CaCa2] (H-FIKTQVLKHLVAGVRVARGLDWKWR-OH; N-terminus and C-terminus assumed), the “Selectivity Index S. aureus” value is >16/>1- >2/N/O.

As to `CC[C@H](C)[C@H](NC(=O)[C@H](CCCCN)NC(=O)[C@H](CS)NC(=O)[C@H](Cc1ccccc1)NC(=O)[C@H](CCCCN)NC(=O)[C@H](CCCNC(=N)N)NC(=O)[C@H](CO)NC(=O)[C@H](Cc1ccc(O)cc1)NC(=O)CNC(=O)[C@H](CS)NC(=O)[C@@H]1CCCN1C(=O)[C@H](C)NC(=O)[C@@H](NC(=O)[C@H](C)NC(=O)[C@H](Cc1ccccc1)NC(=O)[C@H](Cc1ccccc1)NC(=O)[C@H](Cc1ccccc1)NC(=O)[C@H](CCCNC(=N)N)NC(=O)[C@@H](N)CCCNC(=N)N)[C@@H](C)O)C(=O)N[C@H](C(=O)N[C@@H](CCCNC(=N)N)C(=O)N[C@@H](CCCNC(=N)N)C(=O)N[C@@H](CCCCN)C(=O)N[C@@H](CCCNC(=N)N)C(=O)O)[C@@H](C)O` [CaCa4] (H-RRFFFATAPCGYSRKFCKITRRKR-OH; N-terminus and C-terminus assumed), the “Selectivity Index S. Enteritidis” value under setting [1] is given as “N/O”. As to `CC[C@H](C)[C@H](NC(=O)[C@H](CCCCN)NC(=O)[C@H](CS)NC(=O)[C@H](CCCCN)NC(=O)[C@H](CC(C)C)NC(=O)[C@H](CC(N)=O)NC(=O)[C@H](CC(=O)O)NC(=O)[C@H](CC(C)C)NC(=O)[C@H](CC(C)C)NC(=O)[C@@H](NC(=O)[C@@H](NC(=O)[C@H](C)NC(=O)[C@@H](NC(=O)[C@H](CC(N)=O)NC(=O)[C@H](CCCCN)NC(=O)[C@H](C)NC(=O)[C@@H](NC(=O)[C@H](CC(N)=O)NC(=O)[C@H](CCCCN)NC(=O)[C@H](C)NC(=O)[C@@H](NC(=O)[C@H](CC(=O)O)NC(=O)[C@H](CCSC)NC(=O)[C@H](Cc1ccccc1)NC(=O)CN)[C@@H](C)O)C(C)C)C(C)C)C(C)C)[C@@H](C)O)C(=O)N[C@H](C(=O)N[C@@H](CCCCN)C(=O)N[C@@H](C)C(=O)N[C@@H](CS)C(=O)O)[C@@H](C)O` [OdMa13] (H-GFMDTAKNVAKNVAVTLLDNLKCKITKAC-OH; N-terminus and C-terminus assumed), the “Selectivity Index S. Enteritidis” value under setting [1] was “N/O”. Further, the “Selectivity Index S. aureus” value under setting [2] is listed as “N/O”. For `CC(C)C[C@H](NC(=O)CN)C(=O)N[C@@H](CC(C)C)C(=O)NCC(=O)N[C@@H](CCCCN)C(=O)N[C@H](C(=O)N[C@@H](CC(C)C)C(=O)NCC(=O)N[C@H](C(=O)NCC(=O)N[C@@H](CCCCN)C(=O)N[C@@H](CCCCN)C(=O)N[C@H](C(=O)N[C@@H](CC(C)C)C(=O)N[C@@H](CS)C(=O)NCC(=O)N[C@H](C(=O)N[C@H](C(=O)NCC(=O)N[C@@H](CCCNC(=N)N)C(=O)N[C@@H](CCC(=O)O)C(=O)N[C@@H](CCCNC(=N)N)C(=O)N[C@@H](CS)C(=O)N[C@@H](CCC(N)=O)C(=O)O)[C@@H](C)O)C(C)C)C(C)C)C(C)C)C(C)C` [PeNi5] (H-GLLGKVLGVGKKVLCGVTGRERCQ-OH; N-terminus and C-terminus assumed), the “Selectivity Index S. Enteritidis” value under setting [1] is given as “N/O”. Under setting [2], the “Selectivity Index S. aureus” value was more than 2.

Consider `CC[C@H](C)[C@H](NC(=O)[C@@H](N)C(C)C)C(=O)N1CCC[C@H]1C(=O)N[C@@H](Cc1ccccc1)C(=O)N[C@H](C(=O)N[C@@H](C)C(=O)N[C@@H](CO)C(=O)N[C@H](C(=O)N[C@@H](C)C(=O)N[C@@H](C)C(=O)N[C@@H](CCC(=O)O)C(=O)N[C@@H](CCSC)C(=O)N[C@@H](CCSC)C(=O)N[C@@H](Cc1c[nH]cn1)C(=O)N[C@@H](Cc1c[nH]cn1)C(=O)N[C@H](C(=O)N[C@@H](Cc1ccc(O)cc1)C(=O)N[C@@H](CS)C(=O)N[C@@H](C)C(=O)N[C@@H](C)C(=O)N[C@@H](CO)C(=O)N[C@@H](CCCCN)C(=O)N[C@@H](CCCNC(=N)N)C(=O)N[C@@H](CS)C(=O)N[C@@H](CCCCN)C(=O)N[C@@H](CC(N)=O)C(=O)O)C(C)C)C(C)C)C(C)C` [PeNi7] (H-VIPFVASVAAEMMHHVYCAASKRCKN-OH; N-terminus and C-terminus assumed), for which the “Selectivity Index E. coli” value under setting [3] is reported as more than 1. Under setting [1], the “Selectivity Index S. Enteritidis” value is reported as “N/O”. Further, the “Selectivity Index S. aureus” value under setting [2] is listed as “N/O”. `CC[C@H](C)[C@H](N)C(=O)N[C@@H](CO)C(=O)N[C@H](C(=O)N[C@@H](CCCCN)C(=O)N[C@@H](CCC(=O)O)C(=O)N[C@@H](C)C(=O)N[C@@H](CC(C)C)C(=O)N[C@@H](CCC(=O)O)C(=O)N[C@@H](Cc1c[nH]cn1)C(=O)N[C@@H](CO)C(=O)N[C@@H](Cc1ccccc1)C(=O)N[C@@H](Cc1ccccc1)C(=O)N[C@@H](Cc1c[nH]cn1)C(=O)N[C@H](C(=O)N[C@H](C(=O)N1CCC[C@H]1C(=O)N[C@@H](CCCNC(=N)N)C(=O)N[C@@H](CCCCN)C(=O)N[C@@H](Cc1c[nH]c2ccccc12)C(=O)N[C@@H](CS)C(=O)N[C@@H](CCCCN)C(=O)N[C@@H](CCCCN)C(=O)N[C@@H](Cc1c[nH]cn1)C(=O)O)C(C)C)[C@@H](C)O)[C@@H](C)CC` [PoSn1] (H-ISIKEALEHSFFHTVPRKWCKKH-OH): the “Selectivity Index E. coli” value is reported as >2/N/O/N/O, the “Selectivity Index S. Enteritidis” value was >2/N/O/N/O and the “Selectivity Index S. aureus” value was >2/N/O/N/O. For `CC[C@H](C)[C@H](NC(=O)[C@H](CO)NC(=O)[C@H](CC(C)C)NC(=O)[C@H](CO)NC(=O)[C@H](CCCCN)NC(=O)[C@H](CC(C)C)NC(=O)[C@H](C)NC(=O)[C@@H](N)[C@@H](C)O)C(=O)N[C@@H](CC(C)C)C(=O)N[C@@H](CCCCN)C(=O)N[C@@H](CCCCN)C(=O)N[C@@H](CC(C)C)C(=O)N[C@@H](C)C(=O)N[C@@H](CCCCN)C(=O)N[C@@H](CC(C)C)C(=O)N[C@@H](CC(N)=O)C(=O)N[C@@H](CCSC)C(=O)O` [PoSn2, TALKSLSILKKLAKLNM] (H-TALKSLSILKKLAKLNM-OH; N-terminus and C-terminus assumed), under setting [1], the “Selectivity Index S. Enteritidis” value is given as “N/O”. For the same molecule, under setting [2], the “Selectivity Index S. aureus” value was “N/O”. As for `CC[C@H](C)[C@H](NC(=O)[C@H](CO)NC(=O)[C@@H]1CCCN1C(=O)[C@H](CC(C)C)NC(=O)[C@@H](NC(=O)[C@H](CCCCN)NC(=O)[C@H](C)NC(=O)[C@H](C)NC(=O)[C@H](CC(C)C)NC(=O)CNC(=O)[C@H](C)NC(=O)[C@@H](NC(=O)[C@@H](NC(=O)[C@@H]1CCCN1C(=O)[C@H](CC(C)C)NC(=O)[C@@H](N)Cc1ccccc1)C(C)C)C(C)C)C(C)C)C(=O)N[C@H](C(=O)N[C@@H](CS)C(=O)N[C@@H](C)C(=O)N[C@H](C(=O)N[C@H](C(=O)N[C@@H](CCCCN)C(=O)N[C@@H](CCCCN)C(=O)N[C@@H](CS)C(=O)O)[C@@H](C)O)C(C)C)[C@@H](C)CC` [RaCa15] (H-FLPVVAGLAAKVLPSIICAVTKKC-OH; N-terminus and C-terminus assumed), the “Selectivity Index E. coli” value under setting [3] is on record as 4- 16. The “Selectivity Index S. Enteritidis” value under setting [1] is on record as 8- 32. In addition, the “Selectivity Index S. aureus” value under setting [2] was “N/O”. With `CC[C@H](C)[C@H](NC(=O)[C@H](CO)NC(=O)[C@@H]1CCCN1C(=O)[C@H](CC(C)C)NC(=O)[C@@H](NC(=O)[C@H](CCCCN)NC(=O)[C@H](C)NC(=O)[C@H](C)NC(=O)[C@H](CC(C)C)NC(=O)CNC(=O)[C@H](C)NC(=O)[C@@H](NC(=O)[C@@H](NC(=O)[C@@H]1CCCN1C(=O)[C@H](CC(C)C)NC(=O)[C@H](Cc1ccccc1)NC(=O)[C@H](CCCNC(=N)N)NC(=O)[C@H](CCC(N)=O)NC(=O)[C@H](CCC(=O)O)NC(=O)[C@@H](N)CCC(=O)O)C(C)C)C(C)C)C(C)C)C(=O)N[C@H](C(=O)N[C@@H](CS)C(=O)N[C@@H](C)C(=O)N[C@H](C(=O)N[C@H](C(=O)N[C@@H](CCCCN)C(=O)N[C@@H](CCCCN)C(=O)N[C@@H](CS)C(=O)O)[C@@H](C)O)C(C)C)[C@@H](C)CC` [RaSy2] (H-EEQRFLPVVAGLAAKVLPSIICAVTKKC-OH; N-terminus and C-terminus assumed), the “Selectivity Index S. aureus” value under setting [2] is “N/O”.
